Experimental data: paper PMC4340420
These are yes or no findings as the source states them, for the method shown. In cells and extracts the contact can be indirect. A yes stands for co-enrichment or nearness to the bait. Other partners may have been found.

By UniProt entry, the sequences of proteins in these tests, tags left out.
UniProt Q9NYV4: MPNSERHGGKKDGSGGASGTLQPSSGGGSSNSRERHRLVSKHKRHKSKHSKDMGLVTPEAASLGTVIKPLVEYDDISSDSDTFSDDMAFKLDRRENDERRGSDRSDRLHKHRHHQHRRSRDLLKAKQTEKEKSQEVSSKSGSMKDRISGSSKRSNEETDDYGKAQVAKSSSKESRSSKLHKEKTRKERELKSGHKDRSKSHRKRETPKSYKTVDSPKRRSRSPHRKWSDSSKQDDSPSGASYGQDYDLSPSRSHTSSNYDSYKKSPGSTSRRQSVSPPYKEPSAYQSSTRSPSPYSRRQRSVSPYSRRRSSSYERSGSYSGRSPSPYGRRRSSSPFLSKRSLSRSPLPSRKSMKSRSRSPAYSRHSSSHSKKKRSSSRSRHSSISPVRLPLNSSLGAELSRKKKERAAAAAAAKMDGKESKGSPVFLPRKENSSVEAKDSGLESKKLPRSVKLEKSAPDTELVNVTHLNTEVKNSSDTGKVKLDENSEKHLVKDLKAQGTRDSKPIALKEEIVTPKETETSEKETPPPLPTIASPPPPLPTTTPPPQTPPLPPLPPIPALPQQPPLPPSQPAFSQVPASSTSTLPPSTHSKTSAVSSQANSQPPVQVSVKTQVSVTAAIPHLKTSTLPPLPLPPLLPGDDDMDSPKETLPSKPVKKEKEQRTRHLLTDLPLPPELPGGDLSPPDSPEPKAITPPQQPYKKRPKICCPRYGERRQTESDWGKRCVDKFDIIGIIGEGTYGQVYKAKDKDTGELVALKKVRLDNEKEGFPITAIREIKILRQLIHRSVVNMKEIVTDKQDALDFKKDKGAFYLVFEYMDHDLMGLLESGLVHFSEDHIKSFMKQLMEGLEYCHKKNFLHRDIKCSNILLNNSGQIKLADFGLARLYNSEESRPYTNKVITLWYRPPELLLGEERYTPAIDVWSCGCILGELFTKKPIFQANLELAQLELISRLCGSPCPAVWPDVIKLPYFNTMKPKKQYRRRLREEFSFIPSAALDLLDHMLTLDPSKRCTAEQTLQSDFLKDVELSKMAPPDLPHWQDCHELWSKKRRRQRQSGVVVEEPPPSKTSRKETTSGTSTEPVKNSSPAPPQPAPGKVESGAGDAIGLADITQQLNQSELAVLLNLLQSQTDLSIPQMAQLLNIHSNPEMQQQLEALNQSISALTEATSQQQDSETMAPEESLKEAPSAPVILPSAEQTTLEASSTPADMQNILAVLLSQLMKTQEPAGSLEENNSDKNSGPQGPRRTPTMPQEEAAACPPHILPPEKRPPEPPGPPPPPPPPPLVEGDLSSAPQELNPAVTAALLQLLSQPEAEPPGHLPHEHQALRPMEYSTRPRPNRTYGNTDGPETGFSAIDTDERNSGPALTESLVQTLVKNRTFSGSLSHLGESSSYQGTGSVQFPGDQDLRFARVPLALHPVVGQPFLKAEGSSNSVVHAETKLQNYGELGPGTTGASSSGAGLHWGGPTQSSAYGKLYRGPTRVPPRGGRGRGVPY
UniProt O75494: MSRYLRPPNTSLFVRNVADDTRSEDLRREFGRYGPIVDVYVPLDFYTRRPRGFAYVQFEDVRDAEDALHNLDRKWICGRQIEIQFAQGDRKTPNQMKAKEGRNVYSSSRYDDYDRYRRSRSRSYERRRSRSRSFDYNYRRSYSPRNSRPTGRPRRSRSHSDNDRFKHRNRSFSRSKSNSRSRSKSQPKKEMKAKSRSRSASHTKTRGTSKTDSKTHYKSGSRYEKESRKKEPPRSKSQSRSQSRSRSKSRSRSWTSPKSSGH
UniProt Q4VXU2: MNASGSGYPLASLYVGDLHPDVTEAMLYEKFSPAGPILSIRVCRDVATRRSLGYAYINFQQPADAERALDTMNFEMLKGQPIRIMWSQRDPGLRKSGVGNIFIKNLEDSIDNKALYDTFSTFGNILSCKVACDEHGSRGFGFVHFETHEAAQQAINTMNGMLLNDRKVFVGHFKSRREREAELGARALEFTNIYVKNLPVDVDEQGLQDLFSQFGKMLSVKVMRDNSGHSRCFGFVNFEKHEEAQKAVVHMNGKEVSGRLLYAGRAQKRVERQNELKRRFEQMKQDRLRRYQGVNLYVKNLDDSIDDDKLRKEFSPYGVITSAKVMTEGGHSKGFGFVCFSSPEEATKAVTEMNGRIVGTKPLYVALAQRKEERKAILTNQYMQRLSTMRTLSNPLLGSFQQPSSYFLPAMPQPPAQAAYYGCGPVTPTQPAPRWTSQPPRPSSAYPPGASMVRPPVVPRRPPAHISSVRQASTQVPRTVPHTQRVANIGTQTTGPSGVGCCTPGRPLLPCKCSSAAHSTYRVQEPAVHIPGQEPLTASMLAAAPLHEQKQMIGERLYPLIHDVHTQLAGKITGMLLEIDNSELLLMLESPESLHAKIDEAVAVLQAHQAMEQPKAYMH
UniProt P61326: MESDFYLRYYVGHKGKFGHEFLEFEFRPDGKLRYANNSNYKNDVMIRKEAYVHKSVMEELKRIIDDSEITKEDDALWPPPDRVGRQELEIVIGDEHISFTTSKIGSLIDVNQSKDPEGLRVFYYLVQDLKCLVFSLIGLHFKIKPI
UniProt O94913: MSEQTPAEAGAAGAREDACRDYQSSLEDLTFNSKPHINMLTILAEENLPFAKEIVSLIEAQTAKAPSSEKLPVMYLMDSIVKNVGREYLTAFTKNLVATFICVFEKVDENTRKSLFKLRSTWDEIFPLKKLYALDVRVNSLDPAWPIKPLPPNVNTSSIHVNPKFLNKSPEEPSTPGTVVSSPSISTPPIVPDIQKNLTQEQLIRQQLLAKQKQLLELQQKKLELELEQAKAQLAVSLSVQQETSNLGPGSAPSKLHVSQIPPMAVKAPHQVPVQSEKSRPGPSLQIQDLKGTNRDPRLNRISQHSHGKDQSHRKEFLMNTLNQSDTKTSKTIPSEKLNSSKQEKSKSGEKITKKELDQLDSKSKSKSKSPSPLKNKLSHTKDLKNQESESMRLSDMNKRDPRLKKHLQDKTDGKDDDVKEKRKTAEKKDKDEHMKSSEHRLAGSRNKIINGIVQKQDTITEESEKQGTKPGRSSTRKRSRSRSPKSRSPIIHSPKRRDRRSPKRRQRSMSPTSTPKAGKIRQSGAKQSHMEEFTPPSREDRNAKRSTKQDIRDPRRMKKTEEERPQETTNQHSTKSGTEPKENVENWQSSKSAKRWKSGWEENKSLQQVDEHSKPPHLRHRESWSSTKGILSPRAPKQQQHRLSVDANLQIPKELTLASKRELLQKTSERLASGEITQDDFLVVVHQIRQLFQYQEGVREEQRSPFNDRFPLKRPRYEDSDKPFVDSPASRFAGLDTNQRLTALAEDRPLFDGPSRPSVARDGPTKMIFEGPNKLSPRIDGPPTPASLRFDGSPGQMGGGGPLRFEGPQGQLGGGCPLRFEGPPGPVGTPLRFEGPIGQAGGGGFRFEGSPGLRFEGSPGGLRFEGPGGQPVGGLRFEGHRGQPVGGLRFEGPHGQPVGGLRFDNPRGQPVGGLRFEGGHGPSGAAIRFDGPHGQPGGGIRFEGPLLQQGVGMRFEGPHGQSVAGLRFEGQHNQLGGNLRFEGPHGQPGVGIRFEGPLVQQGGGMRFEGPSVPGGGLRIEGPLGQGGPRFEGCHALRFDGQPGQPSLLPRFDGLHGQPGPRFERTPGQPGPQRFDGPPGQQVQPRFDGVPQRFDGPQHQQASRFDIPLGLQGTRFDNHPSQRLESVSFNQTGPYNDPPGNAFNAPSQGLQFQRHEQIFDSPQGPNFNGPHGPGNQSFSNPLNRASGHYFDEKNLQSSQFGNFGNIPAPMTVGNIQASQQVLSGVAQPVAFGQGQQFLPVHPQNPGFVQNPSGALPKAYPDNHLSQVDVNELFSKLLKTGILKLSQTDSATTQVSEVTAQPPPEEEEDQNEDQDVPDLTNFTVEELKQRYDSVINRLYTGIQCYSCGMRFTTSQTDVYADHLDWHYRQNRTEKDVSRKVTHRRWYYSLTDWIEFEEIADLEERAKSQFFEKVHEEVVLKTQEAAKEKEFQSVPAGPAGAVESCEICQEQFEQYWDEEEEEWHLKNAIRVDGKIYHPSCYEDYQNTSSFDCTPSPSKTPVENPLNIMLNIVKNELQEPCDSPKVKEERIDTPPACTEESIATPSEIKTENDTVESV
UniProt Q07955: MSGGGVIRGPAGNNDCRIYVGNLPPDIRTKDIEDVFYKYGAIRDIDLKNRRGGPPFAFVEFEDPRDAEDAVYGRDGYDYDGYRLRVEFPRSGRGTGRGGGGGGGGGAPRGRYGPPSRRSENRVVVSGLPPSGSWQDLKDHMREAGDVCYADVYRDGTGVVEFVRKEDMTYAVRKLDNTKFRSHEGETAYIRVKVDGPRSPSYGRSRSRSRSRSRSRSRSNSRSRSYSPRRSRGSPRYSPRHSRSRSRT
UniProt Q13242: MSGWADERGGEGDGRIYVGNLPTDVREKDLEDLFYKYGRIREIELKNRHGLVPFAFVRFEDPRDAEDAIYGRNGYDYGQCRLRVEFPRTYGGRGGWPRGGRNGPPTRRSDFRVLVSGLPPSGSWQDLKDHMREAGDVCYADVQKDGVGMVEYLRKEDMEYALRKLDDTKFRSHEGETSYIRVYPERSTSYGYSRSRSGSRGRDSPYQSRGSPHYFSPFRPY
UniProt P38919: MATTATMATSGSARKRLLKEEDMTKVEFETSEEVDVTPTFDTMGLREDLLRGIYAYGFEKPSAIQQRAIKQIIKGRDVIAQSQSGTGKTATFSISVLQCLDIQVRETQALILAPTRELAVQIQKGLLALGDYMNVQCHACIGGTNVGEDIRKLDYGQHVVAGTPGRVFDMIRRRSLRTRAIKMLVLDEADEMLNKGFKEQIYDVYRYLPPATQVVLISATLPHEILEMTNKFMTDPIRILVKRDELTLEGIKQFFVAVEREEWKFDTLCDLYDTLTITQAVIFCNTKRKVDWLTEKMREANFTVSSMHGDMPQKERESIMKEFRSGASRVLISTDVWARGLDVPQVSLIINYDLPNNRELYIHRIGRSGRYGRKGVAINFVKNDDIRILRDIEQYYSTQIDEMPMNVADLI

B1: SR Splicing Factor SRSF3 (protein, UniProt P84103 1-164)
chain: MHRDSCPLDCKVYVGNLGNNGNKTELERAFGYYGPLRSVWVARNPPGFAFVEFEDPRDAADAVRELDGRTLCGCRVRVELSNGEKRSRNRGPPPSWGRRPRDDYRRRSPPPRRRSPRRRSFSRSRSRSLSRDRRRERSLSRERNHKPSRSFSRSRSRSRSNERK
B2: SR Splicing Factor SRSF4 (protein, UniProt Q08170 1-494)
chain: MPRVYIGRLSYQARERDVERFFKGYGKILEVDLKNGYGFVEFDDLRDADDAVYELNGKDLCGERVIVEHARGPRRDGSYGSGRSGYGYRRSGRDKYGPPTRTEYRLIVENLSSRCSWQDLKDYMRQAGEVTYADAHKGRKNEGVIEFVSYSDMKRALEKLDGTEVNGRKIRLVEDKPGSRRRRSYSRSRSHSRSRSRSRHSRKSRSRSGSSKSSHSKSRSRSRSGSRSRSKSRSRSQSRSRSKKEKSRSPSKEKSRSRSHSAGKSRSKSKDQAEEKIQNNDNVGKPKSRSPSRHKSKSKSRSRSQERRVEEEKRGSVSRGRSQEKSLRQSRSRSRSKGGSRSRSRSRSKSKDKRKGRKRSREESRSRSRSRSKSERSRKRGSKRDSKAGSSKKKKKEDTDRSQSRSPSRSVSKEREHAKSESSQREGRGESENAGTNQETRSRSRSNSKSKPNLPSESRSRSKSASKTRSRSKSRSRSASRSPSRSRSRSHSRS
B3: SR Splicing Factor SRSF5 (protein, UniProt Q13243 1-272)
chain: MSGCRVFIGRLNPAAREKDVERFFKGYGRIRDIDLKRGFGFVEFEDPRDADDAVYELDGKELCSERVTIEHARARSRGGRGRGRYSDRFSSRRPRNDRRNAPPVRTENRLIVENLSSRVSWQDLKDFMRQAGEVTFADAHRPKLNEGVVEFASYGDLKNAIEKLSGKEINGRKIKLIEGSKRHSRSRSRSRSRTRSSSRSRSRSRSRSRKSYSRSRSRSRSRSRSKSRSVSRSPVPEKSQKRGSSSRSKSPASVDRQRSRSRSRSRSVDSGN
B4: SR Splicing Factor SRSF6 (protein, UniProt Q13247 1-344)
chain: MPRVYIGRLSYNVREKDIQRFFSGYGRLLEVDLKNGYGFVEFEDSRDADDAVYELNGKELCGERVIVEHARGPRRDRDGYSYGSRSGGGGYSSRRTSGRDKYGPPVRTEYRLIVENLSSRCSWQDLKDFMRQAGEVTYADAHKERTNEGVIEFRSYSDMKRALDKLDGTEINGRNIRLIEDKPRTSHRRSYSGSRSRSRSRRRSRSRSRRSSRSRSRSISKSRSRSRSRSKGRSRSRSKGRKSRSKSKSKPKSDRGSHSHSRSRSKDEYEKSRSRSRSRSPKENGKGDIKSKSRSRSQSRSNSPLPVPPSKARSVSPPPKRATSRSRSRSRSKSRSRSRSSSRD
B5: SR Splicing Factor SRSF7 (protein, UniProt Q16629 1-238)
chain: MSRYGRYGGETKVYVGNLGTGAGKGELERAFSYYGPLRTVWIARNPPGFAFVEFEDPRDAEDAVRGLDGKVICGSRVRVELSTGMPRRSRFDRPPARRPFDPNDRCYECGEKGHYAYDCHRYSRRRRSRSRSRSHSRSRGRRYSRSRSRSRGRRSRSASPRRSRSISLRRSRSASLRRSRSGSIKGSRYFQSPSRSRSRSRSISRPRSSRSKSRSPSPKRSRSPSGSPRRSASPERMD
B6: SR Splicing Factor SRSF8 (protein, UniProt Q9BRL6 1-282)
chain: MSCGRPPPDVDGMITLKVDNLTYRTSPDSLRRVFEKYGRVGDVYIPREPHTKAPRGFAFVRFHDRRDAQDAEAAMDGAELDGRELRVQVARYGRRDLPRSRQGEPRGRSRGGGYGRRSRSYGRRSRSPRRRHRSRSRGPSCSRSRSRSRYRGSRYSRSPYSRSPYSRSRYSRSPYSRSRYRESRYGGSHYSSSGYSNSRYSRYHSSRSHSKSGSSTSSRSASTSKSSSARRSKSSSVSRSRSRSRSSSMTRSPPRVSKRKSKSRSRSKRPPKSPEEEGQMSS
B7: RNPS1 (protein, UniProt Q15287 1-305)
chain: MDLSGVKKKSLLGVKENNKKSSTRAPSPTKRKDRSDEKSKDRSKDKGATKESSEKDRGRDKTRKRRSASSGSSSTRSRSSSTSSSGSSTSTGSSSGSSSSSASSRSGSSSTSRSSSSSSSSGSPSPSRRRHDNRRRSRSKSKPPKRDEKERKRRSPSPKPTKVHIGRLTRNVTKDHIMEIFSTYGKIKMIDMPVERMHPHLSKGYAYVEFENPDEAEKALKHMDGGQIDGQEITATAVLAPWPRPPPRRFSPPRRMLPPPPMWRRSPPRMRRRSRSPRRRSPVRRRSRSPGRRRHRSRSSSNSSR
B8: TRA2A (protein, UniProt Q13595 1-282)
chain: MSDVEENNFEGRESRSQSKSPTGTPARVKSESRSGSRSPSRVSKHSESHSRSRSKSRSRSRRHSHRRYTRSRSHSHSHRRRSRSRSYTPEYRRRRSRSHSPMSNRRRHTGSRANPDPNTCLGVFGLSLYTTERDLREVFSRYGPLSGVNVVYDQRTGRSRGFAFVYFERIDDSKEAMERANGMELDGRRIRVDYSITKRAHTPTPGIYMGRPTHSGGGGGGGGGGGGGGGGRRRDSYYDRGYDRGYDRYEDYDYRYRRRSPSPYYSRYRSRSRSRSYSPRRY
B9: TRA2B (protein, UniProt P62995 1-288)
chain: MSDSGEQNYGERESRSASRSGSAHGSGKSARHTPARSRSKEDSRRSRSKSRSRSESRSRSRRSSRRHYTRSRSRSRSHRRSRSRSYSRDYRRRHSHSHSPMSTRRRHVGNRANPDPNCCLGVFGLSLYTTERDLREVFSKYGPIADVSIVYDQQSRRSRGFAFVYFENVDDAKEAKERANGMELDGRRIRVDFSITKRPHTPTPGIYMGRPTYGSSRRRDYYDRGYDRGYDDRDYYSRSYRGGGGGGGGWRAAQDRDQIYRRRSPSPYYSRGGYRSRSRSRSYSPRRY
B10: CPSF1 (protein, UniProt Q10570 1-1443)
chain: MYAVYKQAHPPTGLEFSMYCNFFNNSERNLVVAGTSQLYVYRLNRDAEALTKNDRSTEGKAHREKLELAASFSFFGNVMSMASVQLAGAKRDALLLSFKDAKLSVVEYDPGTHDLKTLSLHYFEEPELRDGFVQNVHTPRVRVDPDGRCAAMLVYGTRLVVLPFRRESLAEEHEGLVGEGQRSSFLPSYIIDVRALDEKLLNIIDLQFLHGYYEPTLLILFEPNQTWPGRVAVRQDTCSIVAISLNITQKVHPVIWSLTSLPFDCTQALAVPKPIGGVVVFAVNSLLYLNQSVPPYGVALNSLTTGTTAFPLRTQEGVRITLDCAQATFISYDKMVISLKGGEIYVLTLITDGMRSVRAFHFDKAAASVLTTSMVTMEPGYLFLGSRLGNSLLLKYTEKLQEPPASAVREAADKEEPPSKKKRVDATAGWSAAGKSVPQDEVDEIEVYGSEAQSGTQLATYSFEVCDSILNIGPCANAAVGEPAFLSEEFQNSPEPDLEIVVCSGHGKNGALSVLQKSIRPQVVTTFELPGCYDMWTVIAPVRKEEEDNPKGEGTEQEPSTTPEADDDGRRHGFLILSREDSTMILQTGQEIMELDTSGFATQGPTVFAGNIGDNRYIVQVSPLGIRLLEGVNQLHFIPVDLGAPIVQCAVADPYVVIMSAEGHVTMFLLKSDSYGGRHHRLALHKPPLHHQSKVITLCLYRDLSGMFTTESRLGGARDELGGRSGPEAEGLGSETSPTVDDEEEMLYGDSGSLFSPSKEEARRSSQPPADRDPAPFRAEPTHWCLLVRENGTMEIYQLPDWRLVFLVKNFPVGQRVLVDSSFGQPTTQGEARREEATRQGELPLVKEVLLVALGSRQSRPYLLVHVDQELLIYEAFPHDSQLGQGNLKVRFKKVPHNINFREKKPKPSKKKAEGGGAEEGAGARGRVARFRYFEDIYGYSGVFICGPSPHWLLVTGRGALRLHPMAIDGPVDSFAPFHNVNCPRGFLYFNRQGELRISVLPAYLSYDAPWPVRKIPLRCTAHYVAYHVESKVYAVATSTNTPCARIPRMTGEEKEFETIERDERYIHPQQEAFSIQLISPVSWEAIPNARIELQEWEHVTCMKTVSLRSEETVSGLKGYVAAGTCLMQGEEVTCRGRILIMDVIEVVPEPGQPLTKNKFKVLYEKEQKGPVTALCHCNGHLVSAIGQKIFLWSLRASELTGMAFIDTQLYIHQMISVKNFILAADVMKSISLLRYQEESKTLSLVSRDAKPLEVYSVDFMVDNAQLGFLVSDRDRNLMVYMYLPEAKESFGGMRLLRRADFHVGAHVNTFWRTPCRGATEGLSKKSVVWENKHITWFATLDGGIGLLLPMQEKTYRRLLMLQNALTTMLPHHAGLNPRAFRMLHVDRRTLQNAVRNVLDGELLNRYLYLSTMERSELAKKIGTTPDIILDDLLETDRVTAHF
B11: serine/arginine repetitive matrix protein 1 (protein, UniProt Q8IYB3 1-904)
chain: MDAGFFRGTSAEQDNRFSNKQKKLLKQLKFAECLEKKVDMSKVNLEVIKPWITKRVTEILGFEDDVVIEFIFNQLEVKNPDSKMMQINLTGFLNGKNAREFMGELWPLLLSAQENIAGIPSAFLELKKEEIKQRQIEQEKLASMKKQDEDKDKRDKEEKESSREKRERSRSPRRRKSRSPSPRRRSSPVRRERKRSHSRSPRHRTKSRSPSPAPEKKEKTPELPEPSVKVKEPSVQEATSTSDILKVPKPEPIPEPKEPSPEKNSKKEKEKEKTRPRSRSRSKSRSRTRSRSPSHTRPRRRHRSRSRSYSPRRRPSPRRRPSPRRRTPPRRMPPPPRHRRSRSPVRRRRRSSASLSGSSSSSSSSRSRSPPKKPPKRTSSPPRKTRRLSPSASPPRRRHRPSPPATPPPKTRHSPTPQQSNRTRKSRVSVSPGRTSGKVTKHKGTEKRESPSPAPKPRKVELSESEEDKGGKMAAADSVQQRRQYRRQNQQSSSDSGSSSSSEDERPKRSHVKNGEVGRRRRHSPSRSASPSPRKRQKETSPRGRRRRSPSPPPTRRRRSPSPAPPPRRRRTPTPPPRRRTPSPPPRRRSPSPRRYSPPIQRRYSPSPPPKRRTASPPPPPKRRASPSPPPKRRVSHSPPPKQRSSPVTKRRSPSLSSKHRKGSSPSRSTREARSPQPNKRHSPSPRPRAPQTSSSPPPVRRGASSSPQRRQSPSPSTRPIRRVSRTPEPKKIKKAASPSPQSVRRVSSSRSVSGSPEPAAKKPPAPPSPVQSQSPSTNWSPAVPVKKAKSPTPSPSPPRNSDQEGGGKKKKKKKDKKHKKDKKHKKHKKHKKEKAVAAAAAAAVTPAAIAAATTTLAQEEPVAAPEPKKETESEAEDNLDDLEKHLREKALRSMRKAQVSPQS

Target: CDK12 (endogenous, HeLa nuclear extract) (human (endogenous in HeLa)) (UniProt Q9NYV4)
Assay: affinity purification with mass spectrometry; endogenous CDK12 immunopurified from HeLa Dignam-Roeder nuclear extract (about 4 mg/ml, 400 mM NaCl) with rabbit anti-hCDK12 IgG cross-linked to anti-rabbit IgG avidin resin, overnight, 4 °C; washes with 400 mM NaCl buffer and 1% Nonidet P-40; formic acid elution; LC MS/MS; proteins present in total rabbit IgG control filtered out

Molecule	binding
SR Splicing Factor SRSF10 (from UniProt O75494 1-262)	binds
PAP1L (from UniProt Q4VXU2 1-619)	binds
MGN (from UniProt P61326 1-146)	binds
PCF11 (a 3′-end processing factor) (from UniProt O94913 1-1555)	binds
SR Splicing Factor SRSF1 (from UniProt Q07955 1-248)	binds
SR Splicing Factor SRSF9 (from UniProt Q13242 1-221)	binds
eIF4A3 (from UniProt P38919 1-411)	binds
serine/arginine repetitive matrix protein 2 (from UniProt Q9UQ35 1-2752)	binds
B1	binds
B2	binds
B3	binds
B4	binds
B5	binds
B6	binds
B7	binds
B8	binds
B9	binds
B10	binds
B11	binds
